Test results: PubChem BioAssay AID540275 (National Center for Advancing Translational Sciences (NCATS), 2011)
The whole screen tested about 320,000 compounds, of which about 620 (0.19%) were called active. The shares of active, inactive and inconclusive entries below differ from those in the screen. Cut-off read from the data, not from the text of the source: active = activation above about 80%; inconclusive = between about 30% and that limit; inactive = weaker than that.

By UniProt entry, the sequences of proteins in these tests, tags left out.
UniProt Q8NER1, whole entry, looked up: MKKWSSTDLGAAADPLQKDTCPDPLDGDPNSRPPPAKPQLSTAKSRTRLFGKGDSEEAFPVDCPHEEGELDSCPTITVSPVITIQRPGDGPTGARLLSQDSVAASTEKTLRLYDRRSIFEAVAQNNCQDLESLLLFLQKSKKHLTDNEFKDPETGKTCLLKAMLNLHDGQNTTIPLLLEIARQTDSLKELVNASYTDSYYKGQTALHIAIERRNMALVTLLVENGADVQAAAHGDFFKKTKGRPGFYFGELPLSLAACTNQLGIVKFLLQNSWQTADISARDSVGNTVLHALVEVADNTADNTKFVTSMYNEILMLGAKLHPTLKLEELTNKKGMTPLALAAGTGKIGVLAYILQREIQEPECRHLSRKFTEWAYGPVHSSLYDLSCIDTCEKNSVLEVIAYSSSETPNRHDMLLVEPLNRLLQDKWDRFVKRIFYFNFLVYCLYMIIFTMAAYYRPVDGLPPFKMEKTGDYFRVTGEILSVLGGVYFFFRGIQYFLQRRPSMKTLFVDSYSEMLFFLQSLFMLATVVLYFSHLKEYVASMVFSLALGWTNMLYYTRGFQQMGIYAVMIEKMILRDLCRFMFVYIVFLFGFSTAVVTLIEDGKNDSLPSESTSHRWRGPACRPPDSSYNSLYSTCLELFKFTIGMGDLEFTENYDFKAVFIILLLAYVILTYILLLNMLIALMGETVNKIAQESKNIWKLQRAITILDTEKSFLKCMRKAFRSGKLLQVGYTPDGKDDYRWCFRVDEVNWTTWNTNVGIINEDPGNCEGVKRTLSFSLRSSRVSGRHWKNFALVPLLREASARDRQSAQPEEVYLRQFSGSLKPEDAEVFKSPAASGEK

target: Transient receptor potential cation channel subfamily V member 1 (Homo sapiens) (UniProt Q8NER1); assay: HTS Assay for Compounds that Act as Agonists of the Vanilloid Receptor 1; settings: TRPV1-expressing cells, Fluo-8 calcium influx, agonist mode; at 8.33 µM, active compounds read high; note: 0% is about no effect
Outline: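 TRPV1-expressing cells were cultured overnight at 35.5C and loaded with Fluo-8 calcium dye for 40 to 90 min at room temperature. After a 10 s baseline, compound was added and calcium influx was read kinetically for 3 min (ex 480/em 520 nm).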

Q: With `CC(C)c1nnc(NC(=O)c2cc3ccccc3o2)s1` as the compound, how does the activation read?
A: inconclusive: 33.4%

Q: How did the activation turn out when `CCCc1cc(C(=O)N2CCN(c3ccc(C(F)(F)F)cn3)CC2)sc1C` was run?
A: inconclusive: 36.1%

Q: `Cc1ccc(C)c(N(C(=O)Cc2cccs2)C(C(=O)NC2CCCC2)c2ccc(C)o2)c1` (centres undefined) was tested. Which activation did it give?
A: inconclusive: 35.2%

Q: Which activation does the source give for `CC1Oc2ccccc2N(CC(=O)N(Cc2ccccc2)Cc2ccccn2)C1=O` (centres undefined) here?
A: inconclusive: 48.5%

Q: How did the activation turn out when `Cc1ccc(CCC(=O)Nc2ccc(C)c(C)c2)o1` was run?
A: inconclusive: 63.9%

Q: Which activation does the source give for `CC1CCN(S(=O)(=O)c2ccc(C(=O)Nc3ncccc3O)cc2)CC1` here?
A: inconclusive: 42.1%

Q: For `Cc1ccc(S(=O)(=O)N(CCC(=O)NCc2ccccc2F)c2ccccc2)cc1`, which activation is on record?
A: inconclusive: 31.1%

Q: For `O=C(Nc1ccccc1N1CCOCC1)c1ccc(Cl)c(S(=O)(=O)NCc2ccco2)c1`, which activation is on record?
A: inactive: -0.445%

Q: How did the activation turn out when `CCOC(=O)N1CCC(NC(=O)c2cc3cc4cc(OC)ccc4nc3o2)CC1` was run?
A: inactive: 1.13%

Q: Which activation does the source give for `CCOc1ccc(S(=O)(=O)N2CCC(C(=O)NCc3ccncc3)CC2)cc1C` here?
A: inconclusive: 46.1%

Q: `Cc1cccc(N2CCN(C(=O)CCCOc3ccccc3)CC2)c1C` was tested. Which activation did it give?
A: inconclusive: 45.1%

Q: With `COc1cc(/C=N/NC(=O)CCOc2ccccc2C)cc(Br)c1O` as the compound, how does the activation read?
A: inconclusive: 57.1%

Q: With `Cc1cccc2nc(-c3cccnc3)c(NCCC(C)C)n12` as the compound, how does the activation read?
A: inconclusive: 34.5%

Q: Which activation does the source give for `CCC(C)NCCOCCOc1ccc(Br)cc1` (centres undefined) here?
A: inactive: -0.0102%

Q: How did the activation turn out when `COc1cc(NC(=O)C2CCCN(S(=O)(=O)c3cccc4nsnc34)C2)cc(OC)c1` (centres undefined) was run?
A: inactive: -0.255%

Q: For `CC(C)(C)C(=O)NC(=S)Nc1cc(C(F)(F)F)ccc1N1CCOCC1`, which activation is on record?
A: inconclusive: 34.5%

Q: Which activation does the source give for `COc1cccc(/C=N/Nc2nc3ccccc3[nH]2)c1OC` here?
A: inconclusive: 59%

Q: With `Clc1cccc(CSc2ccc(-c3ccco3)nn2)c1` as the compound, how does the activation read?
A: inconclusive: 46.1%

Q: How did the activation turn out when `Cc1nc(-n2[nH]c3c(c2=O)CCCC3)[nH]c(=O)c1Cc1ccccc1` was run?
A: inactive: -6.36%

Q: `Cc1ccc(C(=O)N(CC(=O)Nc2ccc(Cl)c(Cl)c2)Cc2ccco2)cc1` was tested. Which activation did it give?
A: inconclusive: 32.5%

Q: `CCOc1ccc(NC(=O)CN2CCN(CC(=O)Nc3ccc(C(=O)OC)cc3)CC2)cc1` was tested. Which activation did it give?
A: inactive: 2.45%

Q: How did the activation turn out when `COCCCNc1nc2c(c(=O)n(Cc3ccc(Cl)cc3)c(=O)n2C)n1C` was run?
A: inconclusive: 34.4%

Q: How did the activation turn out when `COC(=O)c1ccc(COC(=O)C(NC(=O)Cc2ccccc2)C(C)C)cc1` (centres undefined) was run?
A: inactive: 27.9%

Q: `Nc1ccccc1SC1CC(=O)N(c2ccc3c(c2)OCO3)C1=O` (centres undefined) was tested. Which activation did it give?
A: inactive: -5.76%

Q: `Cc1cccc(N2CCN(C(=S)NCc3ccco3)CC2)c1C` was tested. Which activation did it give?
A: inconclusive: 41.9%

Q: How did the activation turn out when `O=C(Nc1cccc(Br)c1)c1cc2ccccc2o1` was run?
A: inconclusive: 63.1%

Q: How did the activation turn out when `COc1ccc(-c2cc(C(=O)N3CCc4ccccc4C3)no2)cc1OC` was run?
A: inconclusive: 30.6%

Q: How did the activation turn out when `Cc1ccc(-c2cc(C(=O)NN=C3CCCC3)c3ccccc3n2)cc1` was run?
A: inactive: -2%

Q: `C/C(N)=C(/C#N)C(=O)CSc1nc2ccccc2c(=O)n1-c1ccccc1C` was tested. Which activation did it give?
A: inconclusive: 32%

Q: How did the activation turn out when `COc1cc2c(c(O)c1OC)-c1c(cc(OC)c(OC)c1OC)C[C@@H](C)[C@@H](C)C2` was run?
A: inactive: 28.2%

Q: How did the activation turn out when `CCn1nc(NC(=O)C2CCCO2)c2cc3cccc(C)c3nc21` (centres undefined) was run?
A: inconclusive: 45.2%

Q: `CC1(C)CC(=O)C2=C(C1)Nc1cc3c(cc1C2c1ccc2c(c1)OCO2)OCO3` (centres undefined) was tested. Which activation did it give?
A: inconclusive: 44.1%

Q: `C=CCNc1oc(-c2cccc3ccccc23)nc1C#N` was tested. Which activation did it give?
A: inconclusive: 54.5%

Q: How did the activation turn out when `Cc1nc2ccccn2c1C(=O)N/N=C/c1ccccc1` was run?
A: inactive: -4.05%

Q: How did the activation turn out when `NS(=O)(=O)c1ccc(N2CCN(CCOc3ccc(Cl)cc3)CC2)nc1` was run?
A: inactive: 1.07%

Q: For `Clc1ccc(-c2ncc3ccccn23)cc1`, which activation is on record?
A: inconclusive: 49.1%

Q: Which activation does the source give for `COc1ccc(CCn2c(C)cc(C(=O)CSc3nnc(N)s3)c2C)cc1` here?
A: inconclusive: 43.1%

Q: `CCc1ccc(N2C(=O)CN(Cc3cc(OC)c(OC)c(OC)c3)C2=S)cc1` was tested. Which activation did it give?
A: inconclusive: 42.1%

Q: Which activation does the source give for `CCc1nn2c(N3CCOCC3)cc(C)nc2c1-c1ccccc1` here?
A: inactive: -2.43%

Q: `C=CCc1c(C)nc2c(-c3ccccc3)cnn2c1N1CCOCC1` was tested. Which activation did it give?
A: inactive: 0.235%

Q: With `CC(=O)Nc1nc2n(n1)C(c1ccccc1)C=C(c1ccccc1)N2` (centres undefined) as the compound, how does the activation read?
A: inactive: 7.97%

Q: Which activation does the source give for `CCCOc1cccc(-c2nn(-c3ccccc3)cc2/C=C(\C#N)C(=O)NCCCn2ccnc2)c1` here?
A: inconclusive: 60.4%

Q: `CCc1ccc(S(=O)(=O)/N=C2\C=C(Nc3ccc(C(=O)O)cc3)C(=O)c3ccccc32)cc1` was tested. Which activation did it give?
A: inconclusive: 36.4%

Q: For `COc1ccc(-c2cc3nc(CCl)[nH]c(=O)c3s2)cc1`, which activation is on record?
A: inactive: -3.71%

Q: With `COc1ccc(C(=O)Nc2cc3c4c(c2)C(C)C(=O)N4CCC3)c(OC)c1` (centres undefined) as the compound, how does the activation read?
A: inactive: -1.03%

Q: `CCCOc1ccc(N2C(=O)CC(N(Cc3ccccc3)N=O)C2=O)cc1` (centres undefined) was tested. Which activation did it give?
A: inconclusive: 36.6%

Q: With `COc1ccc(C(=O)Nc2ccc(Nc3ccccc3)cc2)cc1[N+](=O)[O-]` as the compound, how does the activation read?
A: inactive: 1.32%

Q: With `Cc1cccc(NC(=S)N(CCN(C)C)Cc2cc3cc(C)ccc3[nH]c2=O)c1` as the compound, how does the activation read?
A: inconclusive: 63.3%

Q: Which activation does the source give for `COc1ccc(-c2ccnc3nc(/N=C/N(C)C)nn23)cc1` here?
A: inconclusive: 36.4%

Q: `O=C(COc1ccc(OCc2ccccc2)cc1)NN=C1CCCC1` was tested. Which activation did it give?
A: inconclusive: 31.7%

Q: With `CCn1cc(C(=O)NC2CCCc3c2cnn3-c2cccc(C)c2C)cn1` (centres undefined) as the compound, how does the activation read?
A: inactive: 15.1%

Q: With `CCOC(=O)N1CCN(C(=O)c2cnn3c(C(F)F)cc(-c4ccc(C)cc4)nc23)CC1` as the compound, how does the activation read?
A: inconclusive: 31.7%

Q: Which activation does the source give for `COc1ccc(C2/C=C\CN(S(=O)(=O)c3cccs3)CC(=O)N2Cc2ccc(F)cc2)cc1` (centres undefined) here?
A: inconclusive: 35.9%

Q: `CCc1nc(N2CCN(C(=O)c3ccccc3)CC2)c2c3c(sc2n1)CCCC3` was tested. Which activation did it give?
A: inconclusive: 49.8%

Q: Which activation does the source give for `Cc1ccc(C)c(NC(=S)N2CCCCCC2)c1` here?
A: inactive: 0.0012%

Q: With `CC(C(=O)Nc1ccc(F)c(F)c1F)N(C)CCOc1ccccc1` (centres undefined) as the compound, how does the activation read?
A: inconclusive: 32.1%

Q: Which activation does the source give for `Cc1ccc(NC(=O)COC(=O)CCC(=O)c2cccs2)cc1C` here?
A: inconclusive: 35.4%

Q: `CCOC(=O)C1(Cc2ccccc2C)CCCN(Cc2ccc(NC(C)=O)cc2)C1` (centres undefined) was tested. Which activation did it give?
A: inconclusive: 41.1%

Q: How did the activation turn out when `CC(C)c1ccc(/C=N/NC(=O)C2CCCC2)cc1` was run?
A: inconclusive: 56.6%

Q: Which activation does the source give for `CCOc1ccc(CN(C)C(=O)c2cccc(S(=O)(=O)N3CCCC3)c2)cc1OC` here?
A: inactive: -0.836%

Q: `COc1cc(CCC(C)=O)ccc1OC(=O)c1c(F)cccc1Cl` was tested. Which activation did it give?
A: inconclusive: 49.2%

Q: `Cc1ccc2nc(SCC(=O)Nc3ccc(F)cc3F)nc(=O)n2c1` was tested. Which activation did it give?
A: inactive: -2.36%

Q: Which activation does the source give for `CCOC(=O)C1(Cc2ccc(Cl)cc2)CCN(C(=O)c2cscn2)CC1` here?
A: inconclusive: 36.5%

Q: `CN(C)c1ccc(/C=N/NC(=O)c2ccc(-n3cnnn3)cc2)cc1` was tested. Which activation did it give?
A: inconclusive: 38.8%

Q: With `COc1ccc(C(=O)N/C(=C/c2ccc(Cl)cc2)C(=O)NCc2ccncc2)cc1` as the compound, how does the activation read?
A: inconclusive: 55.1%

Q: How did the activation turn out when `N#C/C(=C\c1cccnc1)C(=O)Nc1cccc(Cl)c1` was run?
A: inactive: 2.26%

Q: Which activation does the source give for `O=C(Nc1cccc(S(=O)(=O)N2CCCCC2)c1)c1ccc(S(=O)(=O)C(F)F)cc1` here?
A: inconclusive: 40.2%

Q: For `COc1ccccc1CNC(=O)CCc1nc2ccccc2c(=O)[nH]1`, which activation is on record?
A: inactive: 6.85%

Q: For `O=C(CSc1ccccn1)Nc1ccc2c(c1)CCC2`, which activation is on record?
A: inconclusive: 31.8%

Q: With `O=C(NC1CCCc2c1cnn2-c1cc(F)cc(F)c1)c1ccncc1` (centres undefined) as the compound, how does the activation read?
A: inconclusive: 65.5%

Q: With `Cc1nc(SCc2cccc(Oc3ccccc3)c2)n[nH]1` as the compound, how does the activation read?
A: inconclusive: 34.2%

Q: Which activation does the source give for `O=C(Nc1ncc([N+](=O)[O-])s1)c1ccc2c(c1)OCO2` here?
A: inactive: 10.7%

Q: Which activation does the source give for `CCC1(C)Cc2ccccc2-c2nc(NCCCO)[nH]c(=O)c21` (centres undefined) here?
A: inconclusive: 40.6%

Q: For `COc1ccc(C(CCNCc2ccccc2F)c2ccc(F)cc2)cc1` (centres undefined), which activation is on record?
A: inconclusive: 36.3%

Q: How did the activation turn out when `CCc1ccc2c(c1)C(c1ccc([N+](=O)[O-])cc1)=NNC(c1ccc(C)cc1)=N2` was run?
A: inconclusive: 31.9%

Q: For `Cc1nc2ccccc2c2oc(C(=O)N3CCCC(C)C3)cc12` (centres undefined), which activation is on record?
A: inconclusive: 33.4%

Q: For `COc1cccc(NC(=O)c2ccc3c(c2)CCN3S(C)(=O)=O)c1`, which activation is on record?
A: inconclusive: 56.4%

Q: Which activation does the source give for `Cc1ccc(C(=O)NCC(c2ccco2)N2CCc3ccccc32)cc1` (centres undefined) here?
A: inconclusive: 33.4%

Q: `CC(C)CC(COCc1cccc(C(F)(F)F)c1)N1CCN(C(=O)c2cccc(C(F)(F)F)c2)CCC1=O` (centres undefined) was tested. Which activation did it give?
A: inconclusive: 57%

Q: For `Cc1cccc(NC(=O)N2CCC(n3nnc4cc(C)ccc43)CC2)c1`, which activation is on record?
A: inconclusive: 74.1%

Q: Which activation does the source give for `CCn1c(/C=C/Nc2ccccc2)[n+](CC)c2cc(Cl)c(Cl)cc21` here?
A: inactive: 0.284%

Q: For `Cc1ccc(-c2cc(=O)c3ccc(F)cc3[nH]2)cc1`, which activation is on record?
A: inconclusive: 30.4%

Q: Which activation does the source give for `COc1ccc(C(=O)Nc2sc3c(c2C(=O)NCc2ccco2)CCCC3)cc1OC` here?
A: inactive: 10.5%

Q: `Cc1cccc(NC(=O)c2ccc(S(=O)(=O)C(F)F)cc2)c1C` was tested. Which activation did it give?
A: active: 86.5%

Q: With `COc1ccc(CNC(=O)CCSCc2ccccc2C)cc1` as the compound, how does the activation read?
A: inconclusive: 59%

Q: Which activation does the source give for `O=C(NCC(F)(F)F)c1ccc(S(=O)(=O)N2CCN(C(=O)C3CCCO3)CC2)cc1` (centres undefined) here?
A: inactive: 0.663%

Q: With `O=C(NCCS(=O)(=O)N1CCN(c2ccc(F)cc2)CC1)c1ccco1` as the compound, how does the activation read?
A: inactive: -0.214%

Q: How did the activation turn out when `O=C(/C=C/c1ccccc1)NCCOc1ccccc1` was run?
A: inconclusive: 35.6%

Q: With `CC(=O)N1c2ccc(S(=O)(=O)NCCC(=O)N(C)C3CCCCC3)cc2CC1C` (centres undefined) as the compound, how does the activation read?
A: inconclusive: 33.8%
